Data as given in PubChem BioAssay AID504808 (Drosophila RNAi Screening Center, 2011).
In all, the deposit lists about 21,000 reagents; shown is an unselected part of those with a known target gene and a result. Over the whole deposit, 18 (0.084%) got an active call. 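Raw counts without plate normalisation, one of two replicates; the ratio scores behind the calls were not deposited.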 The numbers tell different reagents against one gene apart. A plus sign joins genes that one reagent is predicted to hit. Not stated in the record: the amount of reagent, the time to read-out.

Test: 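Genes whose loss lifts activity of an E2F-responsive reporter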 (primary screen)
Cell system: Drosophila S2 cells
Knock-down reagent: long dsRNA against Drosophila genes
Measured: 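Firefly luciferase driven by E2F sites, normalised to Renilla luciferase on the same minimal promoter, measured by plate reader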
Reading the numbers: E2F firefly: higher = more E2F reporter activity; Renilla normaliser: higher = more normaliser reporter signal
Hit rule: 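a knock-down counted as active when the firefly/Renilla E2F signal rose above 50%, a threshold chosen arbitrarily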

target | reagent | E2F firefly, rep 1 | Renilla normaliser, rep 1 | Call
CG12133 | 1 | 1.56e5 | 4684 | inactive
RpS25 | 1 | 1.40e5 | 7527 | inactive
CG13449 | 1 | 1.73e5 | 7223 | inactive
CG14406 | 1 | 1.52e5 | 6481 | inactive
CG11349 | 1 | 87042 | 3826 | inactive
TMEM216 + CG11760 | 1 | 75677 | 4222 | inactive
brn | 1 | 1532 | 764 | inactive
mIF3 | 1 | 95262 | 4649 | inactive
onecut | 1 | 1.29e5 | 6162 | inactive
nsl1 | 1 | 78113 | 3309 | inactive
CG1314 | 1 | 1.64e5 | 5720 | inactive
Galphao | 1 | 3289 | 209 | inactive
CG32720 | 1 | 81121 | 2518 | inactive
Ir94f | 1 | 78773 | 2706 | inactive
Set2 | 1 | 7915 | 800 | inactive
Tg | 1 | 1.55e5 | 5048 | inactive
CG3651 | 1 | 85942 | 3800 | inactive
ppk | 1 | 1.02e5 | 4181 | inactive
Scsalpha2 | 1 | 74810 | 3063 | inactive
Sin1 | 1 | 191 | 42 | inactive
CG7778 | 1 | 95795 | 3818 | inactive
SF2 | 1 | 1.24e5 | 6825 | inactive
CG13065 | 1 | 1.41e5 | 7065 | inactive
CG13258 | 1 | 1.09e5 | 4457 | inactive
dachs | 1 | 96560 | 3770 | inactive
dachs | 2 | 1.58e5 | 5392 | inactive
Fitm | 1 | 73071 | 3503 | inactive
Tsp66A + CG42661 + CG42660 | 1 | 95507 | 3598 | inactive
pHCl-2 | 1 | 1.13e5 | 5582 | inactive
Fhos | 1 | 1.23e5 | 4897 | inactive
Fhos | 2 | 79125 | 4003 | inactive
Fhos | 3 | 76390 | 3560 | inactive
Fhos | 4 | 1.09e5 | 4344 | inactive
Obp56b | 1 | 1.38e5 | 4865 | inactive
snky | 1 | 1.17e5 | 5516 | inactive
Pdp | 1 | 7629 | 824 | inactive
CG18814 | 1 | 1.68e5 | 6434 | inactive
Cpr35B | 1 | 1.01e5 | 4404 | inactive
Bicra | 1 | 97533 | 5629 | inactive
LS2 | 1 | 86134 | 4262 | inactive
MED1 | 1 | 76113 | 3830 | inactive
gNacalpha | 1 | 1.59e5 | 6125 | inactive
CG33263 | 1 | 1.29e5 | 6681 | inactive
CG4161 | 1 | 1.05e5 | 4661 | inactive
Ttc7 | 1 | 78524 | 3421 | inactive
SAK | 1 | 1.44e5 | 6705 | inactive
Sply | 1 | 50603 | 3433 | inactive
CG8777 | 1 | 2877 | 198 | inactive
Ype | 1 | 8295 | 808 | inactive
CG11836 | 1 | 63978 | 2710 | inactive
Or85b | 1 | 1.41e5 | 5995 | inactive
CG15221 | 1 | 53497 | 3933 | inactive

Only “E2F firefly, rep 1” (9 entries from above):
Sin1 = 191
CG7778 = 95795
SF2 = 1.24e5
CG13065 = 1.41e5
CG13258 = 1.09e5
dachs #1 = 96560
dachs #2 = 1.58e5
Fitm = 73071
Tsp66A + CG42661 + CG42660 = 95507

Continued:
target | reagent | E2F firefly, rep 1 | Renilla normaliser, rep 1 | Call
CG18301 | 1 | 1.46e5 | 5606 | inactive
CG14221 | 1 | 1.47e5 | 6484 | inactive
rgr | 1 | 3508 | 252 | inactive
rgr | 2 | 3648 | 288 | inactive
primo-2 + primo-1 | 1 | 1.19e5 | 7217 | inactive
CG8086 | 1 | 85305 | 3670 | inactive
CG8086 | 2 | 1.36e5 | 5343 | inactive
ect | 1 | 1.00e5 | 5806 | inactive
ect | 2 | 1.24e5 | 5251 | inactive
Coprox | 1 | 98190 | 4063 | inactive
Mst27D | 1 | 1.28e5 | 4690 | inactive
CG42521 | 1 | 1.13e5 | 5423 | inactive
CG11095 | 1 | 7654 | 768 | inactive
CG1750 | 1 | 1914 | 1024 | inactive
CstF50 | 1 | 1969 | 992 | inactive
CG13280 | 1 | 90169 | 4550 | inactive
Eig71Ej | 1 | 1.59e5 | 6869 | inactive
Socs36E | 1 | 64733 | 2953 | inactive
CG34204 | 1 | 1.19e5 | 4954 | inactive
mib2 | 1 | 74035 | 3663 | inactive
Act42A | 1 | 97362 | 4210 | inactive
Cyp311a1 | 1 | 1.44e5 | 6503 | inactive
Or85e (retired record) | 1 | 1.34e5 | 5707 | inactive
cona | 1 | 1.29e5 | 6825 | inactive
CG12253 | 1 | 79027 | 3259 | inactive
gus | 1 | 89800 | 4034 | inactive
gus | 2 | 1.03e5 | 4538 | inactive
CG6689 | 1 | 81241 | 3707 | inactive
CG46339 | 1 | 1726 | 900 | inactive
CG2652 | 1 | 74526 | 848 | inactive
scpr-B | 1 | 80213 | 3389 | inactive
mRpL44 | 1 | 75430 | 3593 | inactive
